The values that follow come from publication PMC6131548.

No constants are given. Whether binding was seen depends on the method and setting. For part of these data: Binding seen in cells or lysates may run through a third protein. Some results given as binding are weak or reduced against the parent protein; the word gives no strength. Where a sequence is shown, tags or fusion partners need not be part of it.

For assay [1], the target named is T1, GST-Tsr2-C (S. cerevisiae (yeast)) (UniProt Q06672).
T1 sequence: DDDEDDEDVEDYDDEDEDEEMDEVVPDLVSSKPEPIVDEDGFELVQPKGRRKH
Nature of the assay: pull-down; GST-Tsr2-C immobilised on Glutathione Sepharose, incubated with purified Tsr2 or Tsr2-N and E. coli lysate containing eS26, with RNase A; Coomassie and western (rows of purified Tsr2 and Tsr2-N); both purified.

For assay [2], the target named is eS26^ΔESS1-FLAG (S. cerevisiae (yeast)) (UniProt P39938). Nature of the assay: pull-down; 1.5 µM His6-Tsr2 added to preassembled GST-Kap123:eS26^FLAG (variant) complexes on Glutathione Sepharose, 1 h, 4 °C; western with α-FLAG; only the binder purified.
Assay [3] addresses eS26^ΔESS2-FLAG (S. cerevisiae (yeast)) (UniProt P39938). The assay is described as above.
Assay [4] has as its target eS26^FLAG (S. cerevisiae (yeast)) (UniProt P39938). Described as above.
The target of assay [5] is recombinant WT eS26 (S. cerevisiae (yeast)) (UniProt P39938). The assay can be described thus: pull-down; recruitment of eS26 to the Fap7:uS11 complex and extraction by Tsr2, Supplementary Fig. 7b; set-up not shown.
Assay [6] deals with T2, ProtA-FLAG-ESS2 (S. cerevisiae (yeast)) (UniProt P39938).
T2 sequence: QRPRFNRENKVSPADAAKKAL
The assay can be described thus: pull-down; ProteinA-Tev-FLAG-ESS2 purified from yeast; FLAG eluate, SDS-PAGE, Coomassie and western analyses.

B1: His6-Tsr2 (protein, UniProt Q06672 1-205)
chain: MSTQYIDETAFVQAEQGKTNLMFSDEKQQARFELGVSMVIYKWDALDVAVENSWGGPDSAEKRDWITGIVVDLFKNEKVVDAALIEETLLYAMIDEFETNVEDDSALPIAVEVINIYNDCFNLNYNKVEKLYLEWQEKQRTKKSKRVVHIEGDDDEDDEDVEDYDDEDEDEEMDEVVPDLVSSKPEPIVDEDGFELVQPKGRRKH
As to B1, the binding entry is “no binding” in assay [1]; “binds” in assay [2]; “binds” in assay [3]; “binds” in assay [4]; “binds” in assay [5].

B2: Tsr2 (endogenous, yeast) (protein, UniProt Q06672 1-205)
chain: MSTQYIDETAFVQAEQGKTNLMFSDEKQQARFELGVSMVIYKWDALDVAVENSWGGPDSAEKRDWITGIVVDLFKNEKVVDAALIEETLLYAMIDEFETNVEDDSALPIAVEVINIYNDCFNLNYNKVEKLYLEWQEKQRTKKSKRVVHIEGDDDEDDEDVEDYDDEDEDEEMDEVVPDLVSSKPEPIVDEDGFELVQPKGRRKH
For B2, the binding result in assay [6] is listed as “binds”.
